According to patent US20250340646A1:
These are yes or no findings as the source states them, for the method shown. Some binding calls cover weakened binding; strength is not graded here.

The chains behind the UniProt entries cited, without tags or fusion partners. Where a name states a change or a piece, a line headed by the entry shows the natural chain unless it says otherwise.
UniProt Q9NZQ7: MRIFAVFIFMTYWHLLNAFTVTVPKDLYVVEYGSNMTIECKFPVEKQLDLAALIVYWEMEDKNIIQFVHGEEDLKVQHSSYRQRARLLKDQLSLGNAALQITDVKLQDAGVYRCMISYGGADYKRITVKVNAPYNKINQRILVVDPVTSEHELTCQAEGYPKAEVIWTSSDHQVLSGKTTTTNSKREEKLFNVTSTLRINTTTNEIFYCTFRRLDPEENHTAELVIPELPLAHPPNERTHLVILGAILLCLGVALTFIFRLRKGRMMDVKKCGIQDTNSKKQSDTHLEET

B1: 2018EP173-H11 scFv (scFv, V domains shown, not shown: small tags and cut ends)
VH: QVQLVQSGGGLVKPGGSLRLSCAASGFTFSSYSMNWVRQAPGKGLEWVSSISSSSSYIYYADSVKGRFTISRDNAKNSLYLQMNSLKAEDTAVYYCARDSLQWLALDYWGQGTLVTVSS
VL: QPVLTQPPSVSVAPGETATITCGGNNIGRKSVHWYLQKPGQAPVLVIGHDTDRPSGIPARFSGSNSGNTATLTINRVEAGDEADYYCQVWDTSGHHYVFGTGTKVTVL
B2: 2018EP280-E01 scFv (scFv, V domains shown, not shown: small tags and cut ends)
VH: EVQLVESGGGLVKPGGSLRLSCAASGLTFSNAWMSWVRQAPGKGLEWVGRIKSKTDGGTTEYAAPVKGRFTISRDDSKNTLYLQMSSLKTEDTAVYYCTIVYYYDSSGPVFFQHWGQGTLVTVSS
VL: QSVLTQPPSASATPGQRVTISCSGSDSNIATNYVYWYQQFPGTAPKLLIYRNHQRPSGVPDRFSGSRSGTSASLAISGLRSEDEADYYCATWDDSVNSWVFGGGTKLTVL

Biological target: full-length human PD-L1 on K562 cells (human) (UniProt Q9NZQ7)
Assay: FACS on K562 cells expressing human PD-L1, scFv titrated

Binder | binding
B1 | binds
B2 | binds
